Assay results published in article PMC5564823.
No constants are given. Whether binding was seen depends on the method and setting. In cells and extracts the contact can be indirect. Some entries that bind do so weakly or less than the wild type.

The chains behind the UniProt entries cited, without tags or fusion partners.
UniProt Q92731: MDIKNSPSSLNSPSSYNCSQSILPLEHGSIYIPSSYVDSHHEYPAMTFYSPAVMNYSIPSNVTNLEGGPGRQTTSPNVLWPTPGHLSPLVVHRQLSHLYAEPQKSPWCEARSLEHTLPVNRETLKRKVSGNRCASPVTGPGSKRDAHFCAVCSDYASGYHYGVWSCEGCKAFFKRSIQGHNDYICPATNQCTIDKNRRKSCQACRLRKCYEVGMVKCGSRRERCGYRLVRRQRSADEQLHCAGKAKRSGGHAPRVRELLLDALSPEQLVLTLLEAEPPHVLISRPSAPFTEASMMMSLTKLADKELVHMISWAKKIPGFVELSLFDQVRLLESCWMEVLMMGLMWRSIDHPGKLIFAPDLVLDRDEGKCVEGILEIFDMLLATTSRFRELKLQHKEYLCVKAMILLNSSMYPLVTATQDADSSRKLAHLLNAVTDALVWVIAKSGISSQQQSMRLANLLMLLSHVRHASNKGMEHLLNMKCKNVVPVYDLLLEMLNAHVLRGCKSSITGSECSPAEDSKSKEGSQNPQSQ
UniProt Q04206: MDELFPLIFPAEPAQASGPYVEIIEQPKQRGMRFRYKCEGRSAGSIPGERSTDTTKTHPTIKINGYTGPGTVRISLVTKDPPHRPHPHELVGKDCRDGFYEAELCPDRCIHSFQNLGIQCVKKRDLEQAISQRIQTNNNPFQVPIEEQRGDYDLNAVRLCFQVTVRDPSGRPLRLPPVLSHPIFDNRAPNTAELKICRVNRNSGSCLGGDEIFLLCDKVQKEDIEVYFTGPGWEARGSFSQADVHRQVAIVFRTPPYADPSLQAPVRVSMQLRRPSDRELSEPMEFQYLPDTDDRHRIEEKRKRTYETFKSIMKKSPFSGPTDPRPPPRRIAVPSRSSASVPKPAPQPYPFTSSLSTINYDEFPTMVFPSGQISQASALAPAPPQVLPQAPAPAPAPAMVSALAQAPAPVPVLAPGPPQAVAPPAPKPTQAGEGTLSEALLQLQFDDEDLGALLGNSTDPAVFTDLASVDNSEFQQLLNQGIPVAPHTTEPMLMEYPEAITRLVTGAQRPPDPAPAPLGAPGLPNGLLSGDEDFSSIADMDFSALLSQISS

What was measured:
[1] = biological target: ERβ-FLAG (UniProt Q92731); test: co-IP; ES2-ERβ-FLAG cell lysates immunoprecipitated with IgG or FLAG antibody, Western blotting with p65 antibody
[2] = biological target: ERβ-GST fusion protein (UniProt Q92731); test: pull-down; ES2 cell lysates (NP40/Triton X-100 lysis buffer: 50 mM Tris-HCl pH 7.5, 0.2% Triton X-100, 0.3% Nonidet P-40, 150 mM NaCl) incubated with GST or ERβ-GST fusion proteins; bound p65 detected by Western blotting; only the target purified

Substance: p65 subunit of NF-κB (from UniProt Q04206 1-551)
- binding [1]: binds
- binding [2]: binds
